For assay [1], the target named is T1, UltraID_ZFP36L1 (UltraID fused to the N-terminus of ZFP36L1, co-expressed with GFP through P2A) (UniProt Q07352).
T1 sequence: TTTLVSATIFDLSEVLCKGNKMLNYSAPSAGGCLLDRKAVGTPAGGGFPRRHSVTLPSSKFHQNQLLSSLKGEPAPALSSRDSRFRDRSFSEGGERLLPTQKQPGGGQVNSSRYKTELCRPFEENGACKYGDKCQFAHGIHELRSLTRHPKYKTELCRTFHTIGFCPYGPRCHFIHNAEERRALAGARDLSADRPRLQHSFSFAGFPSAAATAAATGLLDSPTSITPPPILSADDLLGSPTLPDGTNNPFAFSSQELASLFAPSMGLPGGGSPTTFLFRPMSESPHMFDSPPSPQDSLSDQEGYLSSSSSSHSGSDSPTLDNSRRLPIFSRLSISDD
Nature of the assay: proximity labelling; UltraID_L1 in retrovirally transduced primary human T cells, rested or re-activated 16 h with αCD3/αCD28, with or without 500 μM biotin; biotinylated proteins captured from lysate on streptavidin beads and identified by MS; controls UltraID_GFP and no biotin; T cell screens 1 and 2 (the network of Fig 3A also draws on the Jurkat screen).

The chains behind the UniProt entries cited, without tags or fusion partners.
UniProt Q9UIV1: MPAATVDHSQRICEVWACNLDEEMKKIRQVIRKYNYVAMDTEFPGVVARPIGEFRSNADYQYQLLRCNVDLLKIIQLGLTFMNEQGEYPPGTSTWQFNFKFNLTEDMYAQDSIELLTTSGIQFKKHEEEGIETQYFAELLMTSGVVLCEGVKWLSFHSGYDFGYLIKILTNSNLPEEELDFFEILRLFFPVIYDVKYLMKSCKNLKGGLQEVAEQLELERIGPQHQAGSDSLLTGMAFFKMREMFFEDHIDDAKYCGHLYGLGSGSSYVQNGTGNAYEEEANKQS
UniProt P63104: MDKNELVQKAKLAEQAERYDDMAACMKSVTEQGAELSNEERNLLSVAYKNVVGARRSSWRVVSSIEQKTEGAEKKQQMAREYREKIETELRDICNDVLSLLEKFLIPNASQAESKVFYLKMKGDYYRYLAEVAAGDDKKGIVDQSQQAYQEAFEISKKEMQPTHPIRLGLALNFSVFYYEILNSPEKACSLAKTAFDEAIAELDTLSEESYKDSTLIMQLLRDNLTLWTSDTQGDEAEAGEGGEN
UniProt O60573: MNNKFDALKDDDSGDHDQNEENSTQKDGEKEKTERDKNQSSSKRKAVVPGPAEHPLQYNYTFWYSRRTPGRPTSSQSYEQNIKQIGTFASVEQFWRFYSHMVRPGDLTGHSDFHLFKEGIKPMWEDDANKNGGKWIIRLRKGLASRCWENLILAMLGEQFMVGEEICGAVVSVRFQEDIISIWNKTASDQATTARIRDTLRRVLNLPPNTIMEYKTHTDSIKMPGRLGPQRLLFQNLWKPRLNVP
UniProt O75420: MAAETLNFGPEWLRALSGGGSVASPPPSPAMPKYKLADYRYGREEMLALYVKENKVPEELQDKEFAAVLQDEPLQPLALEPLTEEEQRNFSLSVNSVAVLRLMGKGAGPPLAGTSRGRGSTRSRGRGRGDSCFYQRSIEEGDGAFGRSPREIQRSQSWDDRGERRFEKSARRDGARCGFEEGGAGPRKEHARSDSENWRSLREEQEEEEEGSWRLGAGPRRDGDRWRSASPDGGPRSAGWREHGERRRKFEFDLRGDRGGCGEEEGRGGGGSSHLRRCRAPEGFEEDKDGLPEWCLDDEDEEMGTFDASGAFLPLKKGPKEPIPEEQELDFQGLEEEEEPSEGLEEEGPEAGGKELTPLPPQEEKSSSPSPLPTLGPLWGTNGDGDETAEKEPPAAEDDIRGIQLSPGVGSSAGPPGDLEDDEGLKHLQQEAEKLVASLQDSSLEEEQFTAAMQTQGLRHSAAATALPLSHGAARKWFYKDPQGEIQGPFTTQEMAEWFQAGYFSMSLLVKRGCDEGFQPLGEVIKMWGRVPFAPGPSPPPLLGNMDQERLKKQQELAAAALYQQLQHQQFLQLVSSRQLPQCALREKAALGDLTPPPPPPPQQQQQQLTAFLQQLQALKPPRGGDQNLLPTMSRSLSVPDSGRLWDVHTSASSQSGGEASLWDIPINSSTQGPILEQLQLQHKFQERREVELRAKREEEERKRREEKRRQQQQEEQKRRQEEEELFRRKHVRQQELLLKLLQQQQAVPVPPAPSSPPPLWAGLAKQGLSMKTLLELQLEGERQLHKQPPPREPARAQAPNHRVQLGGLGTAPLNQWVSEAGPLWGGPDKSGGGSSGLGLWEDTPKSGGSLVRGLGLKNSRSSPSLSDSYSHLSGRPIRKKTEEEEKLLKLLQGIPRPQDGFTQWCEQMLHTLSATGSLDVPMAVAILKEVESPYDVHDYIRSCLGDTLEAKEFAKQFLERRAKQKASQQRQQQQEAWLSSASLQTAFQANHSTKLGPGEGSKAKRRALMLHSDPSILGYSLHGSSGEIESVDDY
UniProt P51114: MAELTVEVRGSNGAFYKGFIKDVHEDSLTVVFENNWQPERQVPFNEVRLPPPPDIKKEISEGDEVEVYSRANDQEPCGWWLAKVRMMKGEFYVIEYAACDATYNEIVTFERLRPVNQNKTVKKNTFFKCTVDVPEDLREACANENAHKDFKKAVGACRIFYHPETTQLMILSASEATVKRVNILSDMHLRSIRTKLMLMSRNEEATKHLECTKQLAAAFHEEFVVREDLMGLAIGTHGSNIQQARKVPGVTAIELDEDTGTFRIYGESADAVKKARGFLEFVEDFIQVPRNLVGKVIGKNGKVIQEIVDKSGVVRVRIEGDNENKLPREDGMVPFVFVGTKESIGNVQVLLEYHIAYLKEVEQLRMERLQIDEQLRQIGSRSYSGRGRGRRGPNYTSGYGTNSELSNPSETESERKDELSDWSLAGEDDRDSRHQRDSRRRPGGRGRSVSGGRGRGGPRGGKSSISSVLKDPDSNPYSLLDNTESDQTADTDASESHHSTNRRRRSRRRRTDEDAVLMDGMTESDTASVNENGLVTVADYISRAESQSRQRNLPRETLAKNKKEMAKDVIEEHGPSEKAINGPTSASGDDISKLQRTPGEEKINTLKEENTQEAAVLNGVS
UniProt Q9NZN8: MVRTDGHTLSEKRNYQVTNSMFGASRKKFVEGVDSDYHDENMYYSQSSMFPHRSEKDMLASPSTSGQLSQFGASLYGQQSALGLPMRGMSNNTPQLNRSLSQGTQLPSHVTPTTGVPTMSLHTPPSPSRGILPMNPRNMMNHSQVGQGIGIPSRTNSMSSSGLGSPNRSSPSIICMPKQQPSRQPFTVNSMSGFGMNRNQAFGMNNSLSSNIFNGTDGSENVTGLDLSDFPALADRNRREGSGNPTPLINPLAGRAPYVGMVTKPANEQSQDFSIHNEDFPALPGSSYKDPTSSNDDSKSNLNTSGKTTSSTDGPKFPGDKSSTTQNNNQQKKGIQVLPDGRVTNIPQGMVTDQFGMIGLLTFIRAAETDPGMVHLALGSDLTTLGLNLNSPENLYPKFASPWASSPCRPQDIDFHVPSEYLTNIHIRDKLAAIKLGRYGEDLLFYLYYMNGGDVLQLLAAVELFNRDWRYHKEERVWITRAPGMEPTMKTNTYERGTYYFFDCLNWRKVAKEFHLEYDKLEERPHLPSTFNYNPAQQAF
UniProt O75175: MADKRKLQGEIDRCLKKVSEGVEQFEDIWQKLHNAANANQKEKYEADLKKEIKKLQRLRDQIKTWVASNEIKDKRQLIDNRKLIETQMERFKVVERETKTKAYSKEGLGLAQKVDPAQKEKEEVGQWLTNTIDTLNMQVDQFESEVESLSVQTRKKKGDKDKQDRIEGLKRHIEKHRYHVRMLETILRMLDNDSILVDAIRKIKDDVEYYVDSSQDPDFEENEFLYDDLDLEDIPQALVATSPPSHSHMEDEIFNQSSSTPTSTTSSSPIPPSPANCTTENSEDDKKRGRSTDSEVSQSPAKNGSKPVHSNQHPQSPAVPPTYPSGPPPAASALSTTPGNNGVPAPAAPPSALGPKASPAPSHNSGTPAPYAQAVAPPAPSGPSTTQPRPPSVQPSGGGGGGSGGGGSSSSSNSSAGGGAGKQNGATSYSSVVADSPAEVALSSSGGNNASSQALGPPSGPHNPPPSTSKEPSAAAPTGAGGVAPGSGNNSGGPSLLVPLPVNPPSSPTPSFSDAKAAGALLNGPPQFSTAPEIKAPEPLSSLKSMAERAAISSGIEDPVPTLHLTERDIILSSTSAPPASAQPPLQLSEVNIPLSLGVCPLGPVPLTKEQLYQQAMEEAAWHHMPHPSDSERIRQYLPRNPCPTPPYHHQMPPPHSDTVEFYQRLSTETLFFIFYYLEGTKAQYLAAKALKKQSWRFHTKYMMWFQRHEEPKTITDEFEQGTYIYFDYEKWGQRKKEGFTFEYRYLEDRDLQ
UniProt Q9HCJ0: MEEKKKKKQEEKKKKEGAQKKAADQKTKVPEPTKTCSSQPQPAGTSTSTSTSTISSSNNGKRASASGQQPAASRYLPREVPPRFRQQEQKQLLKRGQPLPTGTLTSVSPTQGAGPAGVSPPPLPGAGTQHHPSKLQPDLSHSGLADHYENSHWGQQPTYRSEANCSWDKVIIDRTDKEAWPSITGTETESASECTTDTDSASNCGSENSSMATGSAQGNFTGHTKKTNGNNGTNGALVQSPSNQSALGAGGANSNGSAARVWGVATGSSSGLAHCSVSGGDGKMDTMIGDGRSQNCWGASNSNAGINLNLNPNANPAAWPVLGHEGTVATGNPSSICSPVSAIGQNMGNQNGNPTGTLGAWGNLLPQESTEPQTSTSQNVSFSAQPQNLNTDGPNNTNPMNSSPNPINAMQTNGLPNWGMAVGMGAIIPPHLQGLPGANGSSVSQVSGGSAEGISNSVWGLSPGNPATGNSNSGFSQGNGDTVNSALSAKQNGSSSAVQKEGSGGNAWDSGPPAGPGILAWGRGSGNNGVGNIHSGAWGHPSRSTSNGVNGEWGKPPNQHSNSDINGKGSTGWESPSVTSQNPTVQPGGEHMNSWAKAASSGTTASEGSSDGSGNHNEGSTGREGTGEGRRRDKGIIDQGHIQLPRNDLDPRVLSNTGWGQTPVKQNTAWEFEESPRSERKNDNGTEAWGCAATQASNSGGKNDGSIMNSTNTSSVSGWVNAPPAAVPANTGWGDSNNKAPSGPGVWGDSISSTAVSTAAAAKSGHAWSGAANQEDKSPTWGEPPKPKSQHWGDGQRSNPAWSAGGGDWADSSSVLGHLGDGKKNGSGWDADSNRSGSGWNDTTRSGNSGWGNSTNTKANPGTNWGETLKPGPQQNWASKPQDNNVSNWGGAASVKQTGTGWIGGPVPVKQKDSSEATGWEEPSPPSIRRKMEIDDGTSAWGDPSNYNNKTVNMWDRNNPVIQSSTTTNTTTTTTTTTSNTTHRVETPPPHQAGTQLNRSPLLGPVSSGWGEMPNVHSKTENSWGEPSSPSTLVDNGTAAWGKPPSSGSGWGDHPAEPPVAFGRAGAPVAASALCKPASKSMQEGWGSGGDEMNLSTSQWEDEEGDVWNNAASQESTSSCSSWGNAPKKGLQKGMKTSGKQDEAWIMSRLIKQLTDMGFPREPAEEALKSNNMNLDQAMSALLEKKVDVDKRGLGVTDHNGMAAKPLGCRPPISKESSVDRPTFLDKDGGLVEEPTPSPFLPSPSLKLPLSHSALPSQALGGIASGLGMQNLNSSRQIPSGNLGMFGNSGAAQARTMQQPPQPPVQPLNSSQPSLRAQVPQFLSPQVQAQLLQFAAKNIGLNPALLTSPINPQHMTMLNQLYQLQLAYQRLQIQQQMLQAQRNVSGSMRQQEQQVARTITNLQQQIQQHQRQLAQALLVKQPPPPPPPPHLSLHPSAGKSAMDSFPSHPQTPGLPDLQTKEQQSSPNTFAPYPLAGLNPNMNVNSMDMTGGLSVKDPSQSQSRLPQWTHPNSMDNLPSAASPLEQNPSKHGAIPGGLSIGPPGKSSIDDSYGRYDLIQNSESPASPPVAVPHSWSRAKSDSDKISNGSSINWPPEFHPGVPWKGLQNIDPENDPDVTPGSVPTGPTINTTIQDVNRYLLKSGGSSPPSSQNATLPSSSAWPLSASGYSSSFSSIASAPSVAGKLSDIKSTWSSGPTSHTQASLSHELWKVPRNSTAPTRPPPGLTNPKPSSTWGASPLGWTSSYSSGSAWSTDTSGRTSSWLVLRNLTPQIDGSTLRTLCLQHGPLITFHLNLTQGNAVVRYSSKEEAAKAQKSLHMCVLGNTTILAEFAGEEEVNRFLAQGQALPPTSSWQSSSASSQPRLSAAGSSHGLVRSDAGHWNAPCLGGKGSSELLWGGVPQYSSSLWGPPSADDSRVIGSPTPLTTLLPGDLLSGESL
UniProt P67809: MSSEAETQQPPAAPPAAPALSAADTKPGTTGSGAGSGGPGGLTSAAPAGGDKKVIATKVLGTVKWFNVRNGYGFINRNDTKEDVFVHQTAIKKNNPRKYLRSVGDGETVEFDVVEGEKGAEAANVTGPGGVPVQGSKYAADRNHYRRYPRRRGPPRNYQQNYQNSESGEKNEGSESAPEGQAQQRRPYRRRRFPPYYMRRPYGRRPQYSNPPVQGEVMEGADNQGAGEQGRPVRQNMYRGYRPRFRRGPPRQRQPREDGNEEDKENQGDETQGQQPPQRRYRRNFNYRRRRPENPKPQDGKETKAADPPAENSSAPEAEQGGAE
UniProt Q13283: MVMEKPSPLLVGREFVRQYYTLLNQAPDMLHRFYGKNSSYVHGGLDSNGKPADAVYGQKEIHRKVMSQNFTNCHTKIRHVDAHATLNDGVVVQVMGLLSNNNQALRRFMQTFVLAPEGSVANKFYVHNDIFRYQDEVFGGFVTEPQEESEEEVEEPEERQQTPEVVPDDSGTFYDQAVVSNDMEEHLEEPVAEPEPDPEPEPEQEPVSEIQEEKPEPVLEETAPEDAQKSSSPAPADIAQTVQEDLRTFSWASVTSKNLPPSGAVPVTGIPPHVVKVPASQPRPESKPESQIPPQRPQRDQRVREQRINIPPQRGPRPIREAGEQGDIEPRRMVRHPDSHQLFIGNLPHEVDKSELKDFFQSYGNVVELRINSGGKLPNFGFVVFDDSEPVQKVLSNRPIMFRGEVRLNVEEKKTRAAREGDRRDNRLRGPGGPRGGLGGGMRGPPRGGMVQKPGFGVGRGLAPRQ

The target of assay [2] is T2, ZFP36L1 (human (endogenous in primary T cells)) (UniProt Q07352).
T2 sequence: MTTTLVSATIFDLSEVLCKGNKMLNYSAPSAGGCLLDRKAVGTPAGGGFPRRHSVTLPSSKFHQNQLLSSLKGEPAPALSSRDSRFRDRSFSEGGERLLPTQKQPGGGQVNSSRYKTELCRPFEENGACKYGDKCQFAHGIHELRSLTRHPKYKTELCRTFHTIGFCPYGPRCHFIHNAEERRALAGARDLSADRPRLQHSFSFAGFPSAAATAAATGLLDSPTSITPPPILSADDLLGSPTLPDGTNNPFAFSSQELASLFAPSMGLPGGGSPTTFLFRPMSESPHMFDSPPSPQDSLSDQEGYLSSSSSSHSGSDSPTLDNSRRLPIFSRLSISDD
Briefly: affinity purification with mass spectrometry; Co-IP of endogenous ZFP36L1 with 10 μg anti-ZFP36L1 (1A3) or IgG control on Protein A Dynabeads, 4 h at 4°C, from cytoplasmic (1% digitonin) lysates of αCD3/αCD28-activated human CD3+ T cells at 0, 2, 5, 16 h; lysates untreated or treated with 200 U/ml RNAse A throughout; MS.

Assay [3] concerns the target T1, UltraID_ZFP36L1 (UltraID fused to the N-terminus of ZFP36L1, co-expressed with GFP through P2A). Nature of the assay: proximity labelling; time course: UltraID_L1 T cells re-activated with αCD3/αCD28 for 0, 2, 5, 16 h; biotin added for 2 h, for 3 h (2-5 h) or for 9 h (5-16 h); streptavidin capture, MS; supervised classification into shapes.
Assay [4] has the same target. Briefly: proximity labelling; UltraID_L1 in retrovirally transduced primary human T cells, rested or re-activated 16 h with αCD3/αCD28, with or without 500 μM biotin; biotinylated proteins captured from lysate on streptavidin beads and identified by MS; controls UltraID_GFP and no biotin; T cell screens 1 and 2 (the network of Fig 3A also draws on the Jurkat screen). The source holds these as a separate data set.

No constants are given. Whether binding was seen depends on the method and setting. Binding seen in cells or lysates may run through a third protein. These calls come from enrichment with a bait or labelling near it, and not all partners need be listed. For some assays here: No binding means not detected with the bait. For some assays here: Sequences can lack the tags named with a protein.

28 molecules from paper PMC13558869 can be followed below.

Turning to AGO2 (from UniProt Q9UKV8 1-859), the binding result in assay [1] and in assay [2] was “binds” each time. In the case of EXOC1 (from UniProt Q9NV70 1-894), the binding result in assay [1] is “binds”. On the same count and under the same terms, for CNOT7 (from UniProt Q9UIV1 1-285) the value was “binds”; for YWHAZ (from UniProt P63104 1-245), “binds”. As to 4EHP (from UniProt O60573 1-245), the binding result in assay [1] is “binds”. On to DCP2 (from UniProt Q8IU60 1-420), for which, in assay [1], the binding entry is “binds”.

Consider GIGYF1 (from UniProt O75420 1-1035), for which the binding result in assay [3] is on record as “binds”; in assay [1], “binds”; in assay [2], “no binding”. On to UBAP2L (from UniProt Q14157 1-1087), for which the binding entry in assay [3] and in assay [1] was “binds” each time.

Consider FXR1 (from UniProt P51114 1-621), for which the binding result in assay [1] and in assay [2] was “binds” in each case. Regarding EXOC4 (from UniProt Q96A65 1-974), the binding entry in assay [1] is “binds”. Turning to EXOC3 (from UniProt O60645 1-745), in assay [1], the binding entry is listed as “binds”.

For the molecule NUPL1 (from UniProt Q9BVL2 1-599), the binding result in assay [1] is recorded as “binds”. The same measure, in the same setting: for CNOT2 (from UniProt Q9NZN8 1-540) the value was “binds”. As for PUM1 (from UniProt Q14671 1-1186), the binding result in assay [3] and in assay [1] was “binds” throughout.

For CNOT3 (from UniProt O75175 1-753), the binding result in assay [1] is “binds”. For the molecule TNRC6B (from UniProt Q9UPQ9 1-1833), the binding result in assay [3] and in assay [2] was “binds” throughout. Take TNRC6C (from UniProt Q9HCJ0 1-1936): the binding result in assay [3] and in assay [1] was “binds” in each case. Consider YBX1 (from UniProt P67809 1-324), for which the binding result in assay [3], in assay [1] and in assay [2] was “binds” each time. Take G3BP1 (from UniProt Q13283 1-466): the binding result in assay [1] is recorded as “binds”. As for TNRC6A (from UniProt Q8NDV7 1-1962), the binding result in assay [3] is listed as “binds”.

With SQSTM1 (from UniProt Q13501 1-440), the binding result in assay [1] and in assay [2] was “binds” throughout. For FXR2 (from UniProt P51116 1-673), the binding entry in assay [1] and in assay [2] was “binds” each time. In the case of YWHAB (from UniProt P31946 1-246), the binding entry in assay [1] was “binds”. As to PRRC2A (from UniProt P48634 1-2157), the binding entry in assay [1] and in assay [2] was “binds” throughout.

B1: PARN (protein, UniProt O95453 1-639)
chain: MEIIRSNFKSNLHKVYQAIEEADFFAIDGEFSGISDGPSVSALTNGFDTPEERYQKLKKHSMDFLLFQFGLCTFKYDYTDSKYITKSFNFYVFPKPFNRSSPDVKFVCQSSSIDFLASQGFDFNKVFRNGIPYLNQEEERQLREQYDEKRSQANGAGALSYVSPNTSKCPVTIPEDQKKFIDQVVEKIEDLLQSEENKNLDLEPCTGFQRKLIYQTLSWKYPKGIHVETLETEKKERYIVISKVDEEERKRREQQKHAKEQEELNDAVGFSRVIHAIANSGKLVIGHNMLLDVMHTVHQFYCPLPADLSEFKEMTTCVFPRLLDTKLMASTQPFKDIINNTSLAELEKRLKETPFNPPKVESAEGFPSYDTASEQLHEAGYDAYITGLCFISMANYLGSFLSPPKIHVSARSKLIEPFFNKLFLMRVMDIPYLNLEGPDLQPKRDHVLHVTFPKEWKTSDLYQLFSAFGNIQISWIDDTSAFVSLSQPEQVKIAVNTSKYAESYRIQTYAEYMGRKQEEKQIKRKWTEDSWKEADSKRLNPQCIPYTLQNHYYRNNSFTAPSTVGKRNLSPSQEEAGLEDGVSGEISDTELEQTDSCAEPLSEGRKKAKKLKRMKKELSPAGSISKNSPATLFEVPDTW
Consider B1, for which, in assay [4], the binding entry was “binds”.

B2: SIRT2 (protein, UniProt Q8IXJ6 1-389)
chain: MAEPDPSHPLETQAGKVQEAQDSDSDSEGGAAGGEADMDFLRNLFSQTLSLGSQKERLLDELTLEGVARYMQSERCRRVICLVGAGISTSAGIPDFRSPSTGLYDNLEKYHLPYPEAIFEISYFKKHPEPFFALAKELYPGQFKPTICHYFMRLLKDKGLLLRCYTQNIDTLERIAGLEQEDLVEAHGTFYTSHCVSASCRHEYPLSWMKEKIFSEVTPKCEDCQSLVKPDIVFFGESLPARFFSCMQSDFLKVDLLLVMGTSLQVQPFASLISKAPLSTPRLLINKEKAGQSDPFLGMIMGLGGGMDFDSKKAYRDVAWLGECDQGCLALAELLGWKKELEDLVRREHASIDAQSGAGVPNPSTSASPKKSPPPAKDEARTTEREKPQ
On to B2, for which the binding result in assay [4] was “binds”.

B3: PAN2 (protein, UniProt Q504Q3 1-1202)
chain: MNFEGLDPGLAEYAPAMHSALDPVLDAHLNPSLLQNVELDPEGVALEALPVQESVHIMEGVYSELHSVVAEVGVPVSVSHFDLHEEMLWVGSHGGHATSFFGPALERYSSFQVNGSDDIRQIQSLENGILFLTKNNLKYMARGGLIIFDYLLDENEDMHSLLLTDSSTLLVGGLQNHIIEIDLNTVQETQKYAVETPGVTIMRQTNRFFFCGHTSGKVSLRDLRTFKVEHEFDAFSGSLSDFDVHGNLLAACGFSSRLTGLACDRFLKVYDLRMMRAITPLQVHVDPAFLRFIPTYTSRLAIISQSGQCQFCEPTGLANPADIFHVNPVGPLLMTFDVSASKQALAFGDSEGCVHLWTDSPEPSFNPYSRETEFALPCLVDSLPPLDWSQDLLPLSLIPVPLTTDTLLSDWPAANSAPAPRRAPPVDAEILRTMKKVGFIGYAPNPRTRLRNQIPYRLKESDSEFDSFSQVTESPVGREEEPHLHMVSKKYRKVTIKYSKLGLEDFDFKHYNKTLFAGLEPHIPNAYCNCMIQVLYFLEPVRCLIQNHLCQKEFCLACELGFLFHMLDLSRGDPCQGNNFLRAFRTIPEASALGLILADSDEASGKGNLARLIQRWNRFILTQLHQDMQELEIPQAYRGAGGSSFCSSGDSVIGQLFSCEMENCSLCRCGSETVRASSTLLFTLSYPDGSKSDKTGKNYDFAQVLKRSICLDQNTQAWCDTCEKYQPTIQTRNIRHLPDILVINCEVNSSKEADFWRMQAEVAFKMAVKKHGGEISKNKEFALADWKELGSPEGVLVCPSIEELKNVWLPFSIRMKMTKNKGLDVCNWTDGDEMQWGPARAEEEHGVYVYDLMATVVHILDSRTGGSLVAHIKVGETYHQRKEGVTHQQWYLFNDFLIEPIDKHEAVQFDMNWKVPAILYYVKRNLNSRYNLNIKNPIEASVLLAEASLARKQRKTHTTFIPLMLNEMPQIGDLVGLDAEFVTLNEEEAELRSDGTKSTIKPSQMSVARITCVRGQGPNEGIPFIDDYISTQEQVVDYLTQYSGIKPGDLDAKISSKHLTTLKSTYLKLRFLIDIGVKFVGHGLQKDFRVINLMVPKDQVLDTVYLFHMPRKRMISLRFLAWYFLDLKIQGETHDSIEDARTALQLYRKYLELSKNGTEPESFHKVLKGLYEKGRKMDWKVPEPEGQTSPKNAAVFSSVLAL
On to B3, for which the binding result in assay [4] is listed as “binds”.

B4: NFKBIE (protein, UniProt O00221 1-500)
chain: MNQRRSESRPGNHRLQAYAEPGKGDSGGAGPLSGSARRGRGGGGAIRVRRPCWSGGAGRGGGPAWAVRLPTVTAGWTWPALRTLSSLRAGPSEPHSPGRRPPRAGRPLCQADPQPGKAARRSLEPDPAQTGPRPARAAGMSEARKGPDEAEESQYDSGIESLRSLRSLPESTSAPASGPSDGSPQPCTHPPGPVKEPQEKEDADGERADSTYGSSSLTYTLSLLGGPEAEDPAPRLPLPHVGALSPQQLEALTYISEDGDTLVHLAVIHEAPAVLLCCLALLPQEVLDIQNNLYQTALHLAVHLDQPGAVRALVLKGASRALQDRHGDTALHVACQRQHLACARCLLEGRPEPGRGTSHSLDLQLQNWQGLACLHIATLQKNQPLMELLLRNGADIDVQEGTSGKTALHLAVETQERGLVQFLLQAGAQVDARMLNGCTPLHLAAGRGLMGISSTLCKAGADSLLRNVEDETPQDLTEESLVLLPFDDLKISGKLLLCTD
As for B4, the binding result in assay [2] is reported as “binds”.
